Reference: the supplement of paper PMC12067093, “Discovery and optimisation of a covalent ligand for TRIM25 and its application to targeted protein ubiquitination” (Chemical Science, 2025)
This is one part of the list.

Chains of the proteins cited; added tags and fusions are not shown. Lines headed by an entry give the natural chain unless they say otherwise; changes in a name come on top.
UniProt P08238, whole entry, looked up: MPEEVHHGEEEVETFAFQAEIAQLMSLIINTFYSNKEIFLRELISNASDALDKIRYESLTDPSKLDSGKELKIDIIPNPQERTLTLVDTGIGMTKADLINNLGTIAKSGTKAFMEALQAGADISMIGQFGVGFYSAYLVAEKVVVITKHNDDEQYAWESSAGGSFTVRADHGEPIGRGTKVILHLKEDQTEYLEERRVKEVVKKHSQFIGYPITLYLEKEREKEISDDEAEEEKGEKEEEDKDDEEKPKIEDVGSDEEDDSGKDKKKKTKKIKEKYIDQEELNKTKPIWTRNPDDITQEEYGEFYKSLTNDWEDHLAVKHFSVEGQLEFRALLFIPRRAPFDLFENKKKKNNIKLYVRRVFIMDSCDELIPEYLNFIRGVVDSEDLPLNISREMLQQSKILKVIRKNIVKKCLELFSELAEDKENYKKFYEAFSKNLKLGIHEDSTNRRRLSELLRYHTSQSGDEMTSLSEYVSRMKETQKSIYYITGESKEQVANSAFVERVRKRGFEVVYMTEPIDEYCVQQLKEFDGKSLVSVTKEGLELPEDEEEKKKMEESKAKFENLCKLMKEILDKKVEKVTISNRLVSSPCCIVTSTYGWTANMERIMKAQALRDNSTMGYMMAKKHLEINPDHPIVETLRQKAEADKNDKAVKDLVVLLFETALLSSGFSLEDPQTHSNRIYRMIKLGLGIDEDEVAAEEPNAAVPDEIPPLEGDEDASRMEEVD
UniProt P09651: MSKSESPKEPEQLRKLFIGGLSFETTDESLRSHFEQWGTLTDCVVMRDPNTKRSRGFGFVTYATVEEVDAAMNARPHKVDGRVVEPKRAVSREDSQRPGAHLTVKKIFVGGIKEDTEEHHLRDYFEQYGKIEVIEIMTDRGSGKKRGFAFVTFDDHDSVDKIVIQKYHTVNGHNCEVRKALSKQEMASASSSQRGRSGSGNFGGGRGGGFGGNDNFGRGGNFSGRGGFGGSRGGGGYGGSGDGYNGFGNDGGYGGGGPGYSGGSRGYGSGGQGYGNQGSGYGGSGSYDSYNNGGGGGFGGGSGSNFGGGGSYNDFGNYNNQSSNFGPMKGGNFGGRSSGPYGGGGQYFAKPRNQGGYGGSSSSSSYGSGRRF
UniProt O95757: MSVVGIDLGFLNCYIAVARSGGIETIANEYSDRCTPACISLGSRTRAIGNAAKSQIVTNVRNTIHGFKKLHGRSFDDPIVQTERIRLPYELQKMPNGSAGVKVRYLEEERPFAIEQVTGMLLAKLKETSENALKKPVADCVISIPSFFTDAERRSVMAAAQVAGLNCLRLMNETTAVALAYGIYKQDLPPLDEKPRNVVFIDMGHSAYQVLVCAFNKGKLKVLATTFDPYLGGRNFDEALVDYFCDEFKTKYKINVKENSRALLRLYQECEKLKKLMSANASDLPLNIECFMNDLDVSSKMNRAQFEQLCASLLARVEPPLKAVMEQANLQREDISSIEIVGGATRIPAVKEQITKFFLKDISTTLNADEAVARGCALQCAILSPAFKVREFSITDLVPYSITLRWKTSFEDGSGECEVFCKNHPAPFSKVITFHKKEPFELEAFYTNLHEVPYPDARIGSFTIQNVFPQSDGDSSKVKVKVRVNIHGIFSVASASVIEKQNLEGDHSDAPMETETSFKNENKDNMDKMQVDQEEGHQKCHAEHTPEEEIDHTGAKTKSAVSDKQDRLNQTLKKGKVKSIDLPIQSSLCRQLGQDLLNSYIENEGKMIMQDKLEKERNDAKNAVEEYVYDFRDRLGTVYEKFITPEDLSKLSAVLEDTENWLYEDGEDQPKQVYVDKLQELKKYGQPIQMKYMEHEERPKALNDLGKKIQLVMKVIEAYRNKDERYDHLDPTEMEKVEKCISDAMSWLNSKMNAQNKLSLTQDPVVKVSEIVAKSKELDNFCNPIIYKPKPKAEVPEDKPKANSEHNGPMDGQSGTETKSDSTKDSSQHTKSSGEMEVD
UniProt O60921: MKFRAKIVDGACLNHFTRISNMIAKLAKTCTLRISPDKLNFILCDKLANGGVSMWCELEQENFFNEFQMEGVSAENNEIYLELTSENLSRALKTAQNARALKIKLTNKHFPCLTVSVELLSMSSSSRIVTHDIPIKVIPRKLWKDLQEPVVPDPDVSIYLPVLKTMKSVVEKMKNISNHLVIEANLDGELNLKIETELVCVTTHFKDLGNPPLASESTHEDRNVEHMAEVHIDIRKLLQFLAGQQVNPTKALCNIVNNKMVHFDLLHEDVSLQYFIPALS
UniProt P51991: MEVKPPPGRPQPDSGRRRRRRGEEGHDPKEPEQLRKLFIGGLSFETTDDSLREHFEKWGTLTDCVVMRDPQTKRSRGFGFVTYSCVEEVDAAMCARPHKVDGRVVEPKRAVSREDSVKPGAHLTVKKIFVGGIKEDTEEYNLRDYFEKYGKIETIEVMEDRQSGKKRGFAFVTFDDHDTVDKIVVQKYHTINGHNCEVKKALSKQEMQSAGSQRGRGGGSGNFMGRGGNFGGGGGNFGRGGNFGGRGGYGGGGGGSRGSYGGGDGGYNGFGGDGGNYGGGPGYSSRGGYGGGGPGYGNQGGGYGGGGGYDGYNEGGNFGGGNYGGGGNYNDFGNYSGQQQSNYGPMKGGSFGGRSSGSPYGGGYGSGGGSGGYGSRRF
UniProt Q00839, whole entry, looked up: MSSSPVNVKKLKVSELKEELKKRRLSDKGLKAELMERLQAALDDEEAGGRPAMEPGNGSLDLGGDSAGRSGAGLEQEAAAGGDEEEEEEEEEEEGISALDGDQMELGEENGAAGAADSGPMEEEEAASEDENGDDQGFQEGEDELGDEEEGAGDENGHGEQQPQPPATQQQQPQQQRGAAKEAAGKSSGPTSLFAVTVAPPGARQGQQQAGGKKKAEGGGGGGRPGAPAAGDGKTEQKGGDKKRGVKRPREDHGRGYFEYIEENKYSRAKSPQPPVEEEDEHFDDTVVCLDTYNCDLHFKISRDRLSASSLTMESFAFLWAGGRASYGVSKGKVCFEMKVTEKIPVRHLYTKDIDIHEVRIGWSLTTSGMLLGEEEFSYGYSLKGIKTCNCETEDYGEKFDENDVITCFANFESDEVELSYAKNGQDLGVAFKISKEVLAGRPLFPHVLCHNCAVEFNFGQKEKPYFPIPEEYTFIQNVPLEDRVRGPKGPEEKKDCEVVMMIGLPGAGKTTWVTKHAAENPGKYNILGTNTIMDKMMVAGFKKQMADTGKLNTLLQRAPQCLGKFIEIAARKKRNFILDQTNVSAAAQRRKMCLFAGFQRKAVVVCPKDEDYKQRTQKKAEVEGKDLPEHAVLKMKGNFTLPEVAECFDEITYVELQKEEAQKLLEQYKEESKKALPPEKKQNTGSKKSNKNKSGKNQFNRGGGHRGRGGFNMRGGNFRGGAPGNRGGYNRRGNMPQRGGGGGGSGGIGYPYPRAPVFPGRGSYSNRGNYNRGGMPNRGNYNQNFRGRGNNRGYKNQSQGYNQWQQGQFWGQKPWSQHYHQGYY
UniProt P34932: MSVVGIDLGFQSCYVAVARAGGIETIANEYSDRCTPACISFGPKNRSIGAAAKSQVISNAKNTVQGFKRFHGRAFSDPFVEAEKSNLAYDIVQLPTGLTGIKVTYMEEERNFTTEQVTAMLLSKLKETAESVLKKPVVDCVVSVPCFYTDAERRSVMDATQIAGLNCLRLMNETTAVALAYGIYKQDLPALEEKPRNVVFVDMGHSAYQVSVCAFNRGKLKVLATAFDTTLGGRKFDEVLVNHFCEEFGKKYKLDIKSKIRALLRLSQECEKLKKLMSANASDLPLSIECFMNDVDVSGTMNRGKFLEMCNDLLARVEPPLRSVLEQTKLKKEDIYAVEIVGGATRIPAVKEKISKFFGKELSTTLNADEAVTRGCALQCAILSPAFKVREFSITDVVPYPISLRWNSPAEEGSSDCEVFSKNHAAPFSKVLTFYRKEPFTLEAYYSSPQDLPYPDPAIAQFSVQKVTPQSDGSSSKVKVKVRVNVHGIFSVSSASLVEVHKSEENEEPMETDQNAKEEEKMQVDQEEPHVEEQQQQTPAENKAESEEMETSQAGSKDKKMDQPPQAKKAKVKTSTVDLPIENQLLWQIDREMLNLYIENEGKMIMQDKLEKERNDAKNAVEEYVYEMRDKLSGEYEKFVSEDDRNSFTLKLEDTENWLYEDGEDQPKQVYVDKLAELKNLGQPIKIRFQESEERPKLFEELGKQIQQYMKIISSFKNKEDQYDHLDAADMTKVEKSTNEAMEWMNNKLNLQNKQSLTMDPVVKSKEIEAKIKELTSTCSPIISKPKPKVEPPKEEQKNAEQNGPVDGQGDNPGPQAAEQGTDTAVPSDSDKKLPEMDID
UniProt Q5SSJ5: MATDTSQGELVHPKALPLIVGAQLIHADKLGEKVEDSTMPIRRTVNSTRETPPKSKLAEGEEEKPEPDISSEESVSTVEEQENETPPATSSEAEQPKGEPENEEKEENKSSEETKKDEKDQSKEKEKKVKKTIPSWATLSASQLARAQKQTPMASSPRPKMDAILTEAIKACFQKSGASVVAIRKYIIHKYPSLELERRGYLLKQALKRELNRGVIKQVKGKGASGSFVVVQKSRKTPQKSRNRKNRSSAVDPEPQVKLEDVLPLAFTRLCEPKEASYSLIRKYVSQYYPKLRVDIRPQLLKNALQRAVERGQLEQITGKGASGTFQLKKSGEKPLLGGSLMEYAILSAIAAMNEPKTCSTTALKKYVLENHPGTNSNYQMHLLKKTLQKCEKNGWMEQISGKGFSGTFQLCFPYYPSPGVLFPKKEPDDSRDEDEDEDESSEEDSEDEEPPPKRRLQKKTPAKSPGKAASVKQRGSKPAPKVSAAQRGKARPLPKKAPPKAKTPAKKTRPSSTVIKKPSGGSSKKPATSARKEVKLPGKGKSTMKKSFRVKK
UniProt P10809, whole entry, looked up: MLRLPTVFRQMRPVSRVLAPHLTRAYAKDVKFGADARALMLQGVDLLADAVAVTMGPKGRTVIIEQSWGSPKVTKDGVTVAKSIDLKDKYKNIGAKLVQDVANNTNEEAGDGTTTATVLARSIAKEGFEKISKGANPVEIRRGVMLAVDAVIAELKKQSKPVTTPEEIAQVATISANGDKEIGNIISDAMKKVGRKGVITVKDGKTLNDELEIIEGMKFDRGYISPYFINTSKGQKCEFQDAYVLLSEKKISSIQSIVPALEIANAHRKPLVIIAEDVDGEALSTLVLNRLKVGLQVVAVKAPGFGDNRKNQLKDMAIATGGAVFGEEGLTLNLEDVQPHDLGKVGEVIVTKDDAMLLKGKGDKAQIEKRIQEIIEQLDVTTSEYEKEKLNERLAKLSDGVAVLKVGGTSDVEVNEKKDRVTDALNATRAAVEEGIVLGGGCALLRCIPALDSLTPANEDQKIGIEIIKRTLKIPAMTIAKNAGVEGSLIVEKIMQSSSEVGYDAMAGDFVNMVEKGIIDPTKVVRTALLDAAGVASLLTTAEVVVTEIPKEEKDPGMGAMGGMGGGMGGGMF
UniProt P14866: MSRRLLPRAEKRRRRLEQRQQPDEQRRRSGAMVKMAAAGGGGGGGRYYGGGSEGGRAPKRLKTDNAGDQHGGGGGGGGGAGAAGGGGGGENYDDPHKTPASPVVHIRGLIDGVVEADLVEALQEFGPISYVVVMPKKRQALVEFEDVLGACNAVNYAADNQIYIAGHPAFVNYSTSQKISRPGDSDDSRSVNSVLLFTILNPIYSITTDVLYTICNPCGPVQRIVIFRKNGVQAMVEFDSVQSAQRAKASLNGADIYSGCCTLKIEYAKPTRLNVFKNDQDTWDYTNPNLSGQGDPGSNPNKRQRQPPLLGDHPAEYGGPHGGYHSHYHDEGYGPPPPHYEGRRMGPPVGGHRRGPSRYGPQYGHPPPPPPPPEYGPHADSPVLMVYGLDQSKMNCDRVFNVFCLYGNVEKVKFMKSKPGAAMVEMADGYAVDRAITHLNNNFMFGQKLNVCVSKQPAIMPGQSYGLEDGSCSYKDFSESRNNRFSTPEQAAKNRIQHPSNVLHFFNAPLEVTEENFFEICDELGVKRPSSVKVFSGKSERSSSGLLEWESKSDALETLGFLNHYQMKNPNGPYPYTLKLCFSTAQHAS
UniProt Q6YN16: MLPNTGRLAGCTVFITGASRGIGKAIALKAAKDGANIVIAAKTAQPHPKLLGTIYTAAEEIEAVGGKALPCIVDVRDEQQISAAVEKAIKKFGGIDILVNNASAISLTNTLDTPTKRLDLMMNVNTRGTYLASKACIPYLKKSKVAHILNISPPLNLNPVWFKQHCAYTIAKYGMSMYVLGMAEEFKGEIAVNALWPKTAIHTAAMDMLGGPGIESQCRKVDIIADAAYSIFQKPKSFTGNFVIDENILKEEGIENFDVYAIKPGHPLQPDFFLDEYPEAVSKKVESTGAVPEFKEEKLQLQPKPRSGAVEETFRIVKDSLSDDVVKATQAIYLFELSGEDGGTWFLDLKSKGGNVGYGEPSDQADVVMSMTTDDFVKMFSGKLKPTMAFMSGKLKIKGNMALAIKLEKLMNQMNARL

Compound: Cc1cc(ccc1-c1ccccc1)C(=O)N1CCCN(CC1)C(=O)CCl [compound 10]
Test: probe-labelled cysteine peptide fold change vs DMSO (competition) (log2 fold change); higher = less target engagement (more negative = stronger competition)
Conditions: 50 µM; THP-1; incubation time: 4 h
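Further: competitive profiling in live THP-1 cells: cysteine peptides tagged with an iodoacetamide desthiobiotin (IA-DTB) probe, intensity after compound treatment relative to DMSO-treated cells.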

Q: For “HSP90AB1_P08238_521_RGFEVVYMTEPIDEYCVQQLK (UniProt P08238)”, which “probe-labelled cysteine peptide fold change” value is on record?
A: Its value is -0.262.

Q: Which “probe-labelled cysteine peptide fold change” value does the source give for “HSD17B11_Q8NBQ5_94_VHTFVVDCSNREDIYSSAK (UniProt Q8NBQ5)” here?
A: Its value is 0.121.

Q: How did the “probe-labelled cysteine peptide fold change” value turn out when “HNRNPA1_P09651_43_SHFEQWGTLTDCVVMRDPNTKR (UniProt P09651)” was run?
A: The value was -0.51.

Q: For “HSPA4L_O95757_34+38_CTPACISLGSR (UniProt O95757)”, which “probe-labelled cysteine peptide fold change” value is on record?
A: Its value is -0.086.

Q: With “HUS1_O60921_253_ALCNIVNNK (UniProt O60921)” as the target, how does the “probe-labelled cysteine peptide fold change” value read?
A: Its value is -0.0811.

Q: How did the “probe-labelled cysteine peptide fold change” value turn out when “HNRNPA0_Q13151_7_MENSQLCK (UniProt Q13151)” was run?
A: The value was -0.305.

Q: With “HSPBP1_Q9NZL4_269_GTLCSMGMVQQLVALVR (UniProt Q9NZL4)” as the target, how does the “probe-labelled cysteine peptide fold change” value read?
A: The value was 0.228.

Q: For “HSPA4L_O95757_140_KPVADCVISIPSFFTDAERR (UniProt O95757)”, which “probe-labelled cysteine peptide fold change” value is on record?
A: Its value is 0.17.

Q: For “HTT_P42858_202_CRPYLVNLLPCLTR (UniProt P42858)”, which “probe-labelled cysteine peptide fold change” value is on record?
A: Its value is -0.0374.

Q: “HSPA4L_O95757_140_KPVADCVISIPSFFTDAER (UniProt O95757)” was tested. Which “probe-labelled cysteine peptide fold change” value did it give?
A: Its value is 0.472.

Q: Which “probe-labelled cysteine peptide fold change” value does the source give for “HNRNPA3_P51991_85+94_GFGFVTYSCVEEVDAAMCAR (UniProt P51991)” here?
A: The value was 0.259.

Q: For “HNRNPA3_P51991_85_GFGFVTYSCVEEVDAAMCARPHK (UniProt P51991)”, which “probe-labelled cysteine peptide fold change” value is on record?
A: The value was -0.239.

Q: “HSPH1_Q92598_290_LMSSNSTDLPLNIECFMNDK (UniProt Q92598)” was tested. Which “probe-labelled cysteine peptide fold change” value did it give?
A: The value was 0.166.

Q: With “HSD17B7_P56937_158_ELEPLLCHSDNPSQLIWTSSR (UniProt P56937)” as the target, how does the “probe-labelled cysteine peptide fold change” value read?
A: The value was 0.329.

Q: For “HNRNPU_Q00839_497_KDCEVVMMIGLPGAGK (UniProt Q00839)”, which “probe-labelled cysteine peptide fold change” value is on record?
A: The value was -0.0189.

Q: “HNRNPM_P52272_676_FNECGHVLYADIK (UniProt P52272)” was tested. Which “probe-labelled cysteine peptide fold change” value did it give?
A: Its value is 0.0407.

Q: With “HTATIP2_Q9BUP3_90_NVNQEVVDFEKLDDYASAFQGHDVGFCCLGTTR (UniProt Q9BUP3)” as the target, how does the “probe-labelled cysteine peptide fold change” value read?
A: Its value is -0.618.

Q: For “HSPA4_P34932_140+146_KPVVDCVVSVPCFYTDAER (UniProt P34932)”, which “probe-labelled cysteine peptide fold change” value is on record?
A: Its value is 0.118.

Q: “HNRNPU_Q00839_497_DCEVVMMIGLPGAGK (UniProt Q00839)” was tested. Which “probe-labelled cysteine peptide fold change” value did it give?
A: The value was 0.0394.

Q: For “HNRNPU_Q00839_607_KAVVVCPK (UniProt Q00839)”, which “probe-labelled cysteine peptide fold change” value is on record?
A: Its value is -0.302.

Q: “HNRNPK_P61978_185_LFQECCPHSTDR (UniProt P61978)” was tested. Which “probe-labelled cysteine peptide fold change” value did it give?
A: Its value is -0.148.

Q: For “HP1BP3_Q5SSJ5_359_TCSTTALKK (UniProt Q5SSJ5)”, which “probe-labelled cysteine peptide fold change” value is on record?
A: The value was -0.452.

Q: For “HUS1_O60921_12_IVDGACLNHFTR (UniProt O60921)”, which “probe-labelled cysteine peptide fold change” value is on record?
A: The value was 0.0644.

Q: Which “probe-labelled cysteine peptide fold change” value does the source give for “HSPD1_P10809_237_CEFQDAYVLLSEKK (UniProt P10809)” here?
A: The value was -0.452.

Q: Which “probe-labelled cysteine peptide fold change” value does the source give for “HNRNPL_P14866_581_LCFSTAQHAS (UniProt P14866)” here?
A: The value was -0.0199.

Q: Which “probe-labelled cysteine peptide fold change” value does the source give for “HSDL2_Q6YN16_218_TAIHTAAMDMLGGPGIESQCR (UniProt Q6YN16)” here?
A: The value was -0.321.

Q: “HNRNPA0_Q13151_49_CFGFVTYSNVEEADAAMAASPHAVDGNTVELKR (UniProt Q13151)” was tested. Which “probe-labelled cysteine peptide fold change” value did it give?
A: The value was -0.355.

Q: Which “probe-labelled cysteine peptide fold change” value does the source give for “HSPA4_P34932_245_FDEVLVNHFCEEFGK (UniProt P34932)” here?
A: Its value is 0.238.

Q: “HSPA4_P34932_779_ELTSTCSPIISK (UniProt P34932)” was tested. Which “probe-labelled cysteine peptide fold change” value did it give?
A: Its value is 0.271.

Q: How did the “probe-labelled cysteine peptide fold change” value turn out when “HSPA4_P34932_146_KPVVDCVVSVPCFYTDAERR (UniProt P34932)” was run?
A: Its value is -0.0976.

Q: For “HSPA4_P34932_270_LSQECEK (UniProt P34932)”, which “probe-labelled cysteine peptide fold change” value is on record?
A: Its value is -0.0369.

Q: With “HNRNPA3_P51991_64_WGTLTDCVVMRDPQTKR (UniProt P51991)” as the target, how does the “probe-labelled cysteine peptide fold change” value read?
A: The value was -0.937.

Q: Which “probe-labelled cysteine peptide fold change” value does the source give for “HNRNPU_Q00839_450+453_PLFPHVLCHNCAVEFNFGQK (UniProt Q00839)” here?
A: Its value is -0.192.

Q: For “HSPA4L_O95757_245_NFDEALVDYFCDEFK (UniProt O95757)”, which “probe-labelled cysteine peptide fold change” value is on record?
A: The value was 0.12.

Q: With “HPCAL1_P37235_38_DCPTGHLTVDEFK (UniProt P37235)” as the target, how does the “probe-labelled cysteine peptide fold change” value read?
A: Its value is 0.248.

Q: How did the “probe-labelled cysteine peptide fold change” value turn out when “HSF1_Q00613_373+378_CLSVACLDK (UniProt Q00613)” was run?
A: Its value is -0.849.
